This is an account of results in the supplement of paper PMC12819154, “High-throughput peptide-centric local stability assay extends protein–ligand identification to membrane proteins, tissues and bacteria” (Nature Structural & Molecular Biology, 2025).

The chains behind the UniProt entries cited, without tags or fusion partners. Where a name states a change or a piece, a line headed by the entry shows the natural chain unless it says otherwise.
UniProt Q9D0J4: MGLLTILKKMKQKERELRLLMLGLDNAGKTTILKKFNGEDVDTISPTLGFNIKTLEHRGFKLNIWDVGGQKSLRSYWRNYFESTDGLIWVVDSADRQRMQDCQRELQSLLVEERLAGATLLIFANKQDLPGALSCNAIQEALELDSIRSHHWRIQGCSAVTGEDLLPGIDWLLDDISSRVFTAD
UniProt Q9CZT4: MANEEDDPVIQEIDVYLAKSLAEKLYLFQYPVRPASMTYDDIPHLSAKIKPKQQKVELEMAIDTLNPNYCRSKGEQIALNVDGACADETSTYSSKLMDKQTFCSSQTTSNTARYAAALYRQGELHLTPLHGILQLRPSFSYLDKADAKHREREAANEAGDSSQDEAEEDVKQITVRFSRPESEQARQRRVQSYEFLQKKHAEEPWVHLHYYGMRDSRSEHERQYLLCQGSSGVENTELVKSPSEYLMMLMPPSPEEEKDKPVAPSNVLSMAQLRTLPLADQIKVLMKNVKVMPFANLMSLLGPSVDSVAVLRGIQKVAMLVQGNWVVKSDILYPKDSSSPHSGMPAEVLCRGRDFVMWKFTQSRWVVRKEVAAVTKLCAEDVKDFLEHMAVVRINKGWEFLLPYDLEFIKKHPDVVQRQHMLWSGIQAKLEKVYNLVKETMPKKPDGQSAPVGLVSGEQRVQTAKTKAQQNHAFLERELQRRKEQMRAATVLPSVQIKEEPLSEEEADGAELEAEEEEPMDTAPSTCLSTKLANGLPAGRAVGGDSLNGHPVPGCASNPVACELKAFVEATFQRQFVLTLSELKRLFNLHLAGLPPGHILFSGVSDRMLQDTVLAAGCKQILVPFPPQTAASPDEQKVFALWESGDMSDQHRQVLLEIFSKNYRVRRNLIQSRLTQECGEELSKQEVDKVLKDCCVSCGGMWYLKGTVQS
UniProt Q9CWV0, whole entry: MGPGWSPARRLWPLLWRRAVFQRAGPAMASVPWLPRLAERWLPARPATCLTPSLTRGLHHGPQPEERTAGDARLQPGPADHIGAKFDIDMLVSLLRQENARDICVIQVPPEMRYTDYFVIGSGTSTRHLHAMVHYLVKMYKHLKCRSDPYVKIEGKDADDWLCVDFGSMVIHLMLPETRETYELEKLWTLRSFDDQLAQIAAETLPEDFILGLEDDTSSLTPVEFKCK
UniProt Q9CZU6: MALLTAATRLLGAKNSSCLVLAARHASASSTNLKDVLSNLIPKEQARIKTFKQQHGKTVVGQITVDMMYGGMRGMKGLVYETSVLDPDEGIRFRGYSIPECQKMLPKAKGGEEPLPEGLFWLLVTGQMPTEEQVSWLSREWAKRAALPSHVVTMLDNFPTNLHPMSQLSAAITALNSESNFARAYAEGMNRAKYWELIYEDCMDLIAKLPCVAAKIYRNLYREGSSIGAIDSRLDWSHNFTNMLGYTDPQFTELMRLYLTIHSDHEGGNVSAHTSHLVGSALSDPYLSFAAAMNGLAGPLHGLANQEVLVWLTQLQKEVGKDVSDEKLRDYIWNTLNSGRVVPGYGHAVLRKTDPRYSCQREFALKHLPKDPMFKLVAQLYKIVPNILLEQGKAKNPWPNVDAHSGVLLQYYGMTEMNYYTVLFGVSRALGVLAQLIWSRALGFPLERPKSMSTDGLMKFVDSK
UniProt Q9D0C4: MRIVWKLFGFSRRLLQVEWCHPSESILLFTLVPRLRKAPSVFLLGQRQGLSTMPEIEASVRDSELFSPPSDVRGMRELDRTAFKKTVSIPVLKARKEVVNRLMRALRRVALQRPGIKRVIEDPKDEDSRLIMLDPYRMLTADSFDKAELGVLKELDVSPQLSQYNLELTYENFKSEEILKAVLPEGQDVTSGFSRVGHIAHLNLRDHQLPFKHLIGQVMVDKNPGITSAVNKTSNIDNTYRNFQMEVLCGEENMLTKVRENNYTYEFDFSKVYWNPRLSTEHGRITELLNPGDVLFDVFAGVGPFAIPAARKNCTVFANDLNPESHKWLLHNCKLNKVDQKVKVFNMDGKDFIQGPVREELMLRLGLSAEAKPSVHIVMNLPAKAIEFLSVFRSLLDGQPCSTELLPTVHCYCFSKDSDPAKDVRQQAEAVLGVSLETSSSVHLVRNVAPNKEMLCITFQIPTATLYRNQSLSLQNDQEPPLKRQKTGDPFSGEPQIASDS
UniProt Q9CZ30, whole entry, looked up: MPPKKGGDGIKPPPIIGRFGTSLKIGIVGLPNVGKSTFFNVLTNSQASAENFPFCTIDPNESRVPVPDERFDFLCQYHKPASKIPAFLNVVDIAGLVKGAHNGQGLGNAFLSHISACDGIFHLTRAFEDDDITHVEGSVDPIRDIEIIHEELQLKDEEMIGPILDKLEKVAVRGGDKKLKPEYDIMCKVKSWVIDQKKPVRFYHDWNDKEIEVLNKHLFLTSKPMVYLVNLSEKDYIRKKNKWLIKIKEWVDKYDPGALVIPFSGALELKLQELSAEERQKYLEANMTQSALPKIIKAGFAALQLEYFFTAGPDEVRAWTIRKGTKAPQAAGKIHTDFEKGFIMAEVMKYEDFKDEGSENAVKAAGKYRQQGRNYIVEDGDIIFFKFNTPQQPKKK
UniProt Q9CT10: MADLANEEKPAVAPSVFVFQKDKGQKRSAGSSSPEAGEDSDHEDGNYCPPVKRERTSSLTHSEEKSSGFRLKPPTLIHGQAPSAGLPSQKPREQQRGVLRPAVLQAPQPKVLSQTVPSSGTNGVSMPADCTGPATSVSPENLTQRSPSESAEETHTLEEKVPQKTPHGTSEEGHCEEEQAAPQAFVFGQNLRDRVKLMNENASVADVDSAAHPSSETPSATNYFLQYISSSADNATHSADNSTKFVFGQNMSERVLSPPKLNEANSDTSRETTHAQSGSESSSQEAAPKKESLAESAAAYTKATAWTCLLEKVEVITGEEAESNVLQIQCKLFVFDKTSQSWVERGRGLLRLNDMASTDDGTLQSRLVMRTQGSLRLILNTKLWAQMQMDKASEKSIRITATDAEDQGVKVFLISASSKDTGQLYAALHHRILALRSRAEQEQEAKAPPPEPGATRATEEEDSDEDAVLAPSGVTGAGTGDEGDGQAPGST
UniProt Q9D0U6: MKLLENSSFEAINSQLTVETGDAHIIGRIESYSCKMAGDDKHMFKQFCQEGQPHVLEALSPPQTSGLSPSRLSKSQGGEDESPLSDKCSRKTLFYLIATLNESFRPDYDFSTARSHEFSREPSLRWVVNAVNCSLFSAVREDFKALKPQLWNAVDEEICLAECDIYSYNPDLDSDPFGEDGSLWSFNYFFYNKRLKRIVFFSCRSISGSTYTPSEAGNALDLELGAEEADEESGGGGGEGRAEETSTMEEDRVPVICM
UniProt Q9D061: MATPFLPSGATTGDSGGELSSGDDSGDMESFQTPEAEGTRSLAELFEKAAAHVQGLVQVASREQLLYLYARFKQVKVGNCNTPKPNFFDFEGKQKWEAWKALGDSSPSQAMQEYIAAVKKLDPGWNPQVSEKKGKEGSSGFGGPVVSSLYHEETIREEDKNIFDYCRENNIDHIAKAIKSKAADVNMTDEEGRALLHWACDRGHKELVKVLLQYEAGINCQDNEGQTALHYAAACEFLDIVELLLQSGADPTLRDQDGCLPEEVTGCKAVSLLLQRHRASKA
UniProt Q9CYQ7: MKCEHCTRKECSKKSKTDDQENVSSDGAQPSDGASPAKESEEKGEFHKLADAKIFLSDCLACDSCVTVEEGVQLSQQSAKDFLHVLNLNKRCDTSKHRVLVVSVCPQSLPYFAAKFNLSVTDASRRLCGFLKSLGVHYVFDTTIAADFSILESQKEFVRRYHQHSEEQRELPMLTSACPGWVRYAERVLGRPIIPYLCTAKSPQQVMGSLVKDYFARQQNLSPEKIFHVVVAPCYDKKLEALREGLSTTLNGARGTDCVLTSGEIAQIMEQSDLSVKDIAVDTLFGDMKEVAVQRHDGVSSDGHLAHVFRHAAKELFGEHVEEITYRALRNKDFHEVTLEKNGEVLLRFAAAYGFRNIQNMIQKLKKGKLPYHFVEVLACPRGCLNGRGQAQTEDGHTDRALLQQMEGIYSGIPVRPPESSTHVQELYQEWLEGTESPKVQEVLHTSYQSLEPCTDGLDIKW
UniProt Q9CSH3: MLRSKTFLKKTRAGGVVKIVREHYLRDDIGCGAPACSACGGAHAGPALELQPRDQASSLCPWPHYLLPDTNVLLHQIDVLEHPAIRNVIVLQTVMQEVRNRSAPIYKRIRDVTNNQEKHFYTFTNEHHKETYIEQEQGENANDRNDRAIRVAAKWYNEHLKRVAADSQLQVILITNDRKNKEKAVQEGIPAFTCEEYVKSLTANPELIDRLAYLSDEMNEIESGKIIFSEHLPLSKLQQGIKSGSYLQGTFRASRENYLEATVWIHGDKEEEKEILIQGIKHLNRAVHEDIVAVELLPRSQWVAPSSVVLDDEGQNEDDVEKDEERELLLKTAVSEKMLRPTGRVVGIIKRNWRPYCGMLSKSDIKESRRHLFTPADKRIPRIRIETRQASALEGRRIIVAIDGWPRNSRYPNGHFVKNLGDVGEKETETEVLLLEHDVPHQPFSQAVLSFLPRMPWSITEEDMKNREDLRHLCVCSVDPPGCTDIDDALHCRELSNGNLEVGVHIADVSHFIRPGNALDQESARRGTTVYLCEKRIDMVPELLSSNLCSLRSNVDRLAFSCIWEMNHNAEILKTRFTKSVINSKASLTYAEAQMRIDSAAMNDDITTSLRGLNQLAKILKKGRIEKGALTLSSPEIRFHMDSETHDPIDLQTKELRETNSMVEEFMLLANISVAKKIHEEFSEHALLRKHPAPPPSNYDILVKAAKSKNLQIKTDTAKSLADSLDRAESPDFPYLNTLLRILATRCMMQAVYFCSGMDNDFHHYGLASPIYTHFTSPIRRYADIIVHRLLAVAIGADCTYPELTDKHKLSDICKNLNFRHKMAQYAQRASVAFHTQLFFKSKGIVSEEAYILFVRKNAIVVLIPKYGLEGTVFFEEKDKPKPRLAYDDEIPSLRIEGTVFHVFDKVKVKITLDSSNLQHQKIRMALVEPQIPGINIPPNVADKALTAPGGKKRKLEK
UniProt Q9CXR1: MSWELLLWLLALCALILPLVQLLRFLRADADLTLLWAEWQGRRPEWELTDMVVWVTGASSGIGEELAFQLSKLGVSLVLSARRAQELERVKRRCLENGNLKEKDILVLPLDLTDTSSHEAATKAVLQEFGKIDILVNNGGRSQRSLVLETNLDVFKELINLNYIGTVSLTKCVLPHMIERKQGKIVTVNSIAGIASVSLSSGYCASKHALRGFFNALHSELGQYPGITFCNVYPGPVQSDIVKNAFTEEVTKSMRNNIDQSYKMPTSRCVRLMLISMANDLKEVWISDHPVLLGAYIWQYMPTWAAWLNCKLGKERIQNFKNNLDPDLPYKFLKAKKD

The list shows a part of the results. Most values lie at the level of the controls, where differences are scatter.

Compound in the assay: CN[C@@H]1C[C@H]2O[C@@](C)([C@@H]1OC)n1c3ccccc3c3c4c(c5c6ccccc6n2c5c31)C(=O)NC4 [staurosporine]
The assay can be described thus: log2 fold change of tryptic peptide abundance, ligand vs vehicle (limited proteolysis) (log2 ratio); higher = more trypsin-susceptible (destabilized). To be noted: ligand concentration: 20 uM; sample: mouse liver crude lysate; replicate design: treated separately.
As to “UniProt Q9D0J4 (peptide sequence: LLMLGLDNAGK, peptide start residue: 19)”, the log2 fold change came out at 0.117. On to “UniProt Q9CZT4 (peptide sequence: FSRPESEQAR, peptide start residue: 177)”, for which the log2 fold change was -0.709.

On to “UniProt Q9CWV0 (peptide sequence: LQPGPADHIGAK, peptide start residue: 74)”, for which the log2 fold change is -0.11. For “UniProt Q9CZU6 (peptide sequence: GYSIPECQK, peptide start residue: 95)”, the log2 fold change came out at 0.209. In the case of “UniProt Q9D0C4 (peptide sequence: TSNIDNTYR, peptide start residue: 233)”, the log2 fold change worked out at 0.235.

Consider “UniProt Q9CZ30 (peptide sequence: LKPEYDIMCK, peptide start residue: 179)”, for which the log2 fold change is 0.176. To “UniProt Q9CT10 (peptide sequence: ATAWTCLLEK, peptide start residue: 303)” belongs 0.158; to “UniProt Q9D0U6 (peptide sequence: IESYSCK, peptide start residue: 29)”, -0.0804; to “UniProt Q9D061 (peptide sequence: KLDPGWNPQVSEK, peptide start residue: 120)”, 0.295.

As for “UniProt Q9CYQ7 (peptide sequence: GQAQTEDGHTDR, peptide start residue: 389)”, the log2 fold change is -0.32. To “UniProt Q9CSH3 (peptide sequence: WYNEHLKR, peptide start residue: 155)” belongs -0.672. With “UniProt Q9CXR1 (peptide sequence: NNLDPDLPYK, peptide start residue: 322)”, the log2 fold change was -0.186.
